Results reported in US20100047232A1.
No constants are given. Whether binding was seen depends on the method and setting. Some binding calls cover weakened binding; strength is not graded here.

By UniProt entry, the sequences of proteins in these tests, tags left out. Where a name states a change or a piece, a line headed by the entry shows the natural chain unless it says otherwise.
UniProt P97484: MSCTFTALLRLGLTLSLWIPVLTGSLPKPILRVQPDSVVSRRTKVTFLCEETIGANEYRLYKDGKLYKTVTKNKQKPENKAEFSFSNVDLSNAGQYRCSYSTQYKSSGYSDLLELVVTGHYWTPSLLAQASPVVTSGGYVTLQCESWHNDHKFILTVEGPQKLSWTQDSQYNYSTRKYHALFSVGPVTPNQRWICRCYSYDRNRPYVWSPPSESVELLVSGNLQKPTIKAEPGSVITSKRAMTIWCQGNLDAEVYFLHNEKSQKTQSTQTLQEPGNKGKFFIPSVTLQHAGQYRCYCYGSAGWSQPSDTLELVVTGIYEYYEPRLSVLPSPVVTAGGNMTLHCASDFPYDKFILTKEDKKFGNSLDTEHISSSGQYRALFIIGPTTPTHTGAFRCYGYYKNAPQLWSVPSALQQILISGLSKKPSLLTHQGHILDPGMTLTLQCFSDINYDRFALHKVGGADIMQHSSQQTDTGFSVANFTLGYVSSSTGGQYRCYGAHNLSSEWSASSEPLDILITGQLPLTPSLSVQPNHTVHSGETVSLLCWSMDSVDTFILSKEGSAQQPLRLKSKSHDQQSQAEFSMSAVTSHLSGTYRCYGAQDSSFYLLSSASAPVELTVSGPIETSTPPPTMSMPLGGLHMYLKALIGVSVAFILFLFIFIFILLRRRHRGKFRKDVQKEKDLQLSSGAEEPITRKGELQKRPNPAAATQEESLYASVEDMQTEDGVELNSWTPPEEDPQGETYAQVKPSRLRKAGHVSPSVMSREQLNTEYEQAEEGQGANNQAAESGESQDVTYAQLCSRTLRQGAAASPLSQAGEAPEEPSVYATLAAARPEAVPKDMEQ
UniProt Q8N423: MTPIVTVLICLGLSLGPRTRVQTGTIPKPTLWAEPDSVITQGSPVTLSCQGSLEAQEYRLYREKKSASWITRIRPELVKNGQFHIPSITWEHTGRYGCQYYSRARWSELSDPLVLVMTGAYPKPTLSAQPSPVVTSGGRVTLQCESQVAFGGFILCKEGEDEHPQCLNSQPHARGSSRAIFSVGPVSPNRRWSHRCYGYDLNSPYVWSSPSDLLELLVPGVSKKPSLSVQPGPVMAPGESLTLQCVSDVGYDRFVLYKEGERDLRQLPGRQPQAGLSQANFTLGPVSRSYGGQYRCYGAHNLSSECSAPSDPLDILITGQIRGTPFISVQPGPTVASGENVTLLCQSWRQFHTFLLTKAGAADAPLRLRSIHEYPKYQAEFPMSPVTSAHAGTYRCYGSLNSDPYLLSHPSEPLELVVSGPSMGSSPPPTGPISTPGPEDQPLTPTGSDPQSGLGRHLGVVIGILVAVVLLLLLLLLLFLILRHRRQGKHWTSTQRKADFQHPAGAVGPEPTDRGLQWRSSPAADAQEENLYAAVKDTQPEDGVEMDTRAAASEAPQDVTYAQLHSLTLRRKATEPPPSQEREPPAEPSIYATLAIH

B1: AP-OMgp (ligand, UniProt P23515 25-417, looked up, not shown: large carriers)
chain: ICPLQCICTERHRHVDCSGRNLSTLPSGLQENIIHLNLSYNHFTDLHNQLTQYTNLRTLDISNNRLESLPAHLPRSLWNMSAANNNIKLLDKSDTAYQWNLKYLDVSKNMLEKVVLIKNTLRSLEVLNLSSNKLWTVPTNMPSKLHIVDLSNNSLTQILPGTLINLTNLTHLYLHNNKFTFIPDQSFDQLFQLQEITLYNNRWSCDHKQNITYLLKWMMETKAHVIGTPCSTQISSLKEHNMYPTPSGFTSSLFTVSGMQTVDTINSLSVVTQPKVTKIPKQYRTKETTFGATLSKDTTFTSTDKAFVPYPEDTSTETINSHEAAAATLTIHLQDGMVTNTSLTSSTKSSPTPMTLSITSGMPNNFSEMPQQSTTLNLWREETTTNVKTPLPS
B2: MAG-AP (ligand, UniProt P20916 20-516, looked up, not shown: large carriers)
chain: GHWGAWMPSSISAFEGTCVSIPCRFDFPDELRPAVVHGVWYFNSPYPKNYPPVVFKSRTQVVHESFQGRSRLLGDLGLRNCTLLLSNVSPELGGKYYFRGDLGGYNQYTFSEHSVLDIVNTPNIVVPPEVVAGTEVEVSCMVPDNCPELRPELSWLGHEGLGEPAVLGRLREDEGTWVQVSLLHFVPTREANGHRLGCQASFPNTTLQFEGYASMDVKYPPVIVEMNSSVEAIEGSHVSLLCGADSNPPPLLTWMRDGTVLREAVAESLLLELEEVTPAEDGVYACLAENAYGQDNRTVGLSVMYAPWKPTVNGTMVAVEGETVSILCSTQSNPDPILTIFKEKQILSTVIYESELQLELPAVSPEDDGEYWCVAENQYGQRATAFNLSVEFAPVLLLESHCAAARDTVQCLCVVKSNPEPSVAFELPSRNVTVNESEREFVYSERSGLVLTSILTLRGQAQAPPRVICTARNLYGAKSLELPFQGAHRLMWAKIGP

Experiments:
[1] = target: T1, PirB (paired-immunoglobulin-like receptor B), mouse (mouse) (UniProt P97484); assay: AP-OMgp on transfected COS7 cells, chromogenic AP substrate
T1 sequence: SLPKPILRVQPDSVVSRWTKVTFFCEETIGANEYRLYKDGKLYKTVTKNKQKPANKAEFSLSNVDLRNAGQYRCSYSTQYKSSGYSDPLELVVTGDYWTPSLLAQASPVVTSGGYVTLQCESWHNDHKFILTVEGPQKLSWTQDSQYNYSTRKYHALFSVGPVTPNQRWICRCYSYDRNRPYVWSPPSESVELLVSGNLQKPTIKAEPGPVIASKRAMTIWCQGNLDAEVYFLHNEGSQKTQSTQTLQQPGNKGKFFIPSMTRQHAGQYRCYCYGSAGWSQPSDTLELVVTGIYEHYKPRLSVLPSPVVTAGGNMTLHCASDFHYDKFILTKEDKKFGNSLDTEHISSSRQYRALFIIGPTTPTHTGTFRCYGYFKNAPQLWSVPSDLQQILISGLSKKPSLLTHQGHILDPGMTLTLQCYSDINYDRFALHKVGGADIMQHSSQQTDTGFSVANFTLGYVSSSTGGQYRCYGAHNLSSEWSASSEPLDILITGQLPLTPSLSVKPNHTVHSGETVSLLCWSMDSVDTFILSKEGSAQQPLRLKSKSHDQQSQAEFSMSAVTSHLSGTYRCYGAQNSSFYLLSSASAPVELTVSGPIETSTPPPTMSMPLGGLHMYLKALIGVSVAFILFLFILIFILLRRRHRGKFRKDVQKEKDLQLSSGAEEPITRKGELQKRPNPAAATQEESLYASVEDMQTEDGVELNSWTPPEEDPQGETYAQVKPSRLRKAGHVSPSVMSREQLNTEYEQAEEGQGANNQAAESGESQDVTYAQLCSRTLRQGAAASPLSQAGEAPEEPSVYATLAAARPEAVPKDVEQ

[2] = target: LILRB2, transcript variant 1 (leukocyte immunoglobulin-like receptor, subfamily B, member 2) (human) (UniProt Q8N423); assay: as above
[3] = target: T2, Homo sapiens hypothetical protein from clone 643 (LOC57228), alternative ORF homologous to SMAG (human) (UniProt Q0VAQ4); assay: expression cloning, AP-fusion bait (20-50 nM) on COS7 cells transfected with human cDNA pools
T2 sequence (looked up): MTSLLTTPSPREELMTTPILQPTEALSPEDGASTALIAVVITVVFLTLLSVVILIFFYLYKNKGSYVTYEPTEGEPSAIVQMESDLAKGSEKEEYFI

[4] = target: T3, Nogo Receptor (hit from the human cDNA library) (human) (UniProt Q9BZR6); assay: as above
T3 sequence (looked up): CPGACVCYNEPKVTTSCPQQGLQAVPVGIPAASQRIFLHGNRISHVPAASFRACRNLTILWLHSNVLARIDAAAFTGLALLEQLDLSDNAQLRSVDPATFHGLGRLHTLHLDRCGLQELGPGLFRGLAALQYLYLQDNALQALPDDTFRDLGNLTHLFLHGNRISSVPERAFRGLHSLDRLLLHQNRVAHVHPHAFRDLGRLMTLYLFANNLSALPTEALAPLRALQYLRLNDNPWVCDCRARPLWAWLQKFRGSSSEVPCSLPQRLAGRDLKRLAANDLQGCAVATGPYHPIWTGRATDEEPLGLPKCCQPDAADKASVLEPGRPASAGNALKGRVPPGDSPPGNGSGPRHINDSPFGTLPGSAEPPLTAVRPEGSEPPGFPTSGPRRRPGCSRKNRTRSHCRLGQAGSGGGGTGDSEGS

Row | Binder | binding [1] | binding [2] | binding [3] | binding [4]
1 | B1 | binds | binds | – | –
2 | B2 | – | – | binds | binds
